Assay [1] has as its target T1, Green Fluorescent Protein (GFP)-Polo (Drosophila melanogaster) (UniProt P52304).
T1 sequence: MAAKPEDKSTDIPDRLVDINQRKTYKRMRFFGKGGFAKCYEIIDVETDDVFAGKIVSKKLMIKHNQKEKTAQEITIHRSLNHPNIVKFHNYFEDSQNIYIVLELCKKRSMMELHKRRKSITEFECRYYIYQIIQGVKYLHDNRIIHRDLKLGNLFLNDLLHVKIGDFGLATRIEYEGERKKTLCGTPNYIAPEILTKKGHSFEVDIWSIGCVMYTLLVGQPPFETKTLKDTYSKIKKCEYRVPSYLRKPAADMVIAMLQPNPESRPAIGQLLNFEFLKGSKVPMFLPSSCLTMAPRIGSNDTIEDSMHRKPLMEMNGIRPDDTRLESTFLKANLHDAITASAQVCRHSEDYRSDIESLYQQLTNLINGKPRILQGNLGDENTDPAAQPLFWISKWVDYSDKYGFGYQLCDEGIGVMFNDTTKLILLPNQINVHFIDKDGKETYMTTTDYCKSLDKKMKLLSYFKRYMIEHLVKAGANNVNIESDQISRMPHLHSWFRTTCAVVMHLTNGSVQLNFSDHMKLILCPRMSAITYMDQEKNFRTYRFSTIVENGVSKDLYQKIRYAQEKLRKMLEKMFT
In words: co-IP; antibody to GFP (ovary extracts of GFP-polo flies) or monoclonal antibody to Polo (wild-type ovary extracts) on protein A or G agarose beads, 1 h at 4 °C; blot for Mtrm.

Assay [2] deals with T2, Polo kinase (Polo) (Drosophila melanogaster (endogenous in ovaries)) (UniProt P52304).
T2 sequence: T1 sequence
Described as above.

In article PMC2100146, “The Inhibition of Polo Kinase by Matrimony Maintains G2 Arrest in the Meiotic Cell Cycle” (PLoS Biology, 2007) one finds binding data, which are given here for one molecule.

No constants are given. Whether binding was seen depends on the method and setting. In cells and extracts the contact can be indirect. Some results given as binding are weak or reduced against the parent protein; the word gives no strength. For some assays here: Tags and fused reporters may be left off the sequences shown.

B1: Matrimony (Mtrm) protein (protein, UniProt Q23973 1-217)
chain: MENSRTPTNKTKITLNRTPTLKERRWNTLKVNTSNVRCSTPIFGNFRSPNLSPIENMGTKGKSPVSPMRFATFKKVPTKVHPKQQQQQQHQHCHRTQLKPPPFVLPKPQEEIIEPEREIKSCSSPDTCSDDSNMETSLALESRRRSIKASNHSYVVNHAANVEQILMHMGLENYVTNFEEAHIDLVELASLERADLVKIGLNTDEDCNRIMDVLHTL
Turning to B1, the binding result in assay [1] and in assay [2] was “binds” throughout.
